# Publication PMC6151695, “Novel Selective Estrogen Receptor Ligand Conjugates Incorporating Endoxifen-Combretastatin and Cyclofenil-Combretastatin Hybrid Scaffolds: Synthesis and Biochemical Evaluation” (Molecules : A Journal of Synthetic Chemistry and Natural …, 2017)
# System: MCF-7 human breast cancer cell line
# Assay: Alamar Blue assay for antiproliferative effects
# Type: cell-based
# Conditions: MCF7, 72 h, MCF-7, 72 h
smiles,measurement,value
"CC/C(=C(\c1ccccc1)c1ccc(OCCN(C)C)cc1)c1ccccc1 [Tamoxifen, reference compound]",IC50,2.13 µM
